Measurements: PubChem BioAssay AID540276 (National Center for Advancing Translational Sciences (NCATS), 2011)
Where “and” joins values, the source holds several entries; their conditions need not be identical. Identical values can stand only once. In all, about 300,000 compounds went through this assay and about 5,400 (1.8%) were called active. Inconclusive results, whose numbers are uncertain, are shown with a selection of clear calls. Calls come from the whole dose curve; tested in HEK293 cells. Potencies of inconclusive entries are doubtful fits and often do not repeat.
% is set by controls: 0 for no effect and ±100 for the full control effect; potency is the fitted concentration of half-maximal effect.

Test: qHTS for inhibitors of binding or entry into cells for Marburg Virus
Conditions: Marburg virus pseudotyped entry inhibition, cell reporter; activity change, negative = inhibition: at 37.8 µM (top of the series) unless noted
In the case of O=C1CN(C(=O)c2ccccc2)C(c2ccc(F)cc2)c2cc(Br)ccc2N1 (stereo not given), the Potency was inconclusive: 3.98 µM [inhibitor, partial curve, poor fit].
For Cc1cc(NC(=O)CSc2sc3c(O)cc(=O)[nH]c3c2C#N)ccc1Br, the Potency was “inactive”.
With CCOc1c([N+](=O)[O-])cc2c(C)c(C(=O)N3CCN(C)CC3)oc2c1OCC the Potency was “inactive”.
With CN1C(=O)CSc2ccc(NC(=O)Nc3ccccn3)cc21 the Potency was inconclusive: 32.6 µM [inhibitor, partial curve, poor fit].
In the case of Cc1cc(C(F)F)n2nc(C(=O)Nc3cccc(C(F)(F)F)c3)nc2n1, the Potency was “inactive”.
In the case of COc1ccccc1COC(=O)c1cccc(S(=O)(=O)N2CCCC2)c1, the Potency was inconclusive: 0.708 µM [inhibitor, single point].
For Cc1cccc(-c2nnc(SCC(=O)O)n2Cc2ccccc2)c1, the Potency was “inactive”.
With Cc1ccc(S(=O)(=O)N(C)CC(=O)NCc2ccncc2)cc1 the Potency was inconclusive: 32.6 µM [activator, single point].
With CCc1ccc(NC(=O)CSc2nnc(-c3nonc3NC(C)=O)n2-c2ccccc2)cc1 the Potency was inconclusive: 10 µM [inhibitor, partial curve, poor fit].
In the case of CCOc1ccc(Nc2c(S(=O)(=O)c3ccc(C)cc3)cnc3ccccc23)cc1, the Potency was inconclusive: 15.8 µM [inhibitor, single point].
With O=C(Nc1ccccc1N1CCN(C(=O)c2ccccc2)CC1)c1ccc(Cl)cc1 the Potency was inconclusive: 28.2 µM [inhibitor, single point].
In the case of FC(F)(F)c1cccc(N2CCN(C(=S)NC3CCCC3)CC2)c1, the Potency was inconclusive: 15.8 µM [inhibitor, partial curve, poor fit].
For CCN(CC)c1ccc2nc3ccc(N)cc3[n+](-c3ccccc3)c2c1, the Potency was inconclusive: 2.82 µM [inhibitor, partial curve, poor fit].
With Cc1cccc(-c2cc(C(=O)Nc3ccncc3)c3ccccc3n2)c1 the Potency was inconclusive: 10 µM [inhibitor, partial curve, poor fit].
For Cc1cc(-c2nc3ncccc3o2)ccc1NC(=O)COc1ccc(C(C)(C)C)cc1, the Potency was inconclusive: 5.01 µM [activator, single point].
In the case of Cc1ccc(S(=O)(=O)OCC(=O)Nc2ccc(C(=O)O)c(O)c2)cc1, the Potency was “inactive”.
For CCN1/C(=C/c2cc[n+](CCCS(=O)(=O)[O-])c3ccccc23)Sc2ccccc21, the Potency was “inactive”.
For Cc1ccc(NC(=O)CN2C(=O)C(c3ccccc3)=NC2(C)C)cc1C, the Potency was “inactive”.
In the case of Cc1ccsc1/C=C1/SC(=O)N(CC(=O)N2CCOCC2)C1=O, the Potency was inconclusive: 3.16 µM [activator, partial curve, poor fit].
For CCOc1cc(/C=N/NC(=O)c2cccnc2)ccc1O, the Potency was “inactive”.
For CC1CCN(C(=O)N2c3ccccc3Sc3ccccc32)CC1, the Potency was inconclusive: 22.4 µM [inhibitor, single point].
In the case of COc1ccc(-n2c(SCC(=O)NCC3CCCO3)nc3ccccc32)cc1 (stereo not given), the Potency was inconclusive: 11.2 µM [inhibitor, partial curve, poor fit].
For [O-]/C(=C(\C(=S)Nc1ccc(SC(F)F)cc1)[n+]1ccccc1)c1ccc(Cl)cc1Cl, the Potency was inconclusive: 14.1 µM [inhibitor, partial curve, poor fit].
In the case of CCCCNCc1cc(Br)c(OCc2cccs2)c(OC)c1, the Potency was inconclusive: 31.6 µM [inhibitor, single point].
In the case of COCCn1c(SC(C)C(=O)NCC2CCCO2)nc2scc(-c3ccc(F)cc3)c2c1=O (stereo not given), the Potency was inconclusive: 0.794 µM [inhibitor, full curve, poor fit].
In the case of CCOC(=O)c1cc(-c2ccccc2)nn1-c1ccccn1, the Potency was inconclusive: 0.231 µM [activator, single point].
In the case of Cc1cc2oc(C(=O)N(Cc3ccccc3)C3CCS(=O)(=O)C3)cc(=O)c2cc1C (stereo not given), the Potency was “inactive”.
With CC(C)(C)C(=O)NC1CC2CCCC(C1)N2C(=O)Nc1ccc(Cl)cc1 (stereo not given) the Potency was inconclusive: 7.94 µM [inhibitor, partial curve].
For CCOc1ccccc1N(CC(=O)NC1CCCC1)C(=O)CCC(=O)Nc1cc(C)on1, the Potency was “inactive”.
For Cc1ccc(C2(C)NC(=O)N(CC(=O)N(Cc3ccccc3)C(C)(C)C)C2=O)cc1 (stereo not given), the Potency was inconclusive: 29.1 µM [inhibitor, single point].
With CCN(c1ccccc1)S(=O)(=O)c1cc(C(=O)Nc2ccc(Br)cc2)ccc1F the Potency was inconclusive: 14.6 µM [inhibitor, partial curve, poor fit] and inconclusive: 11.2 µM [inhibitor, partial curve, poor fit].
In the case of O=C(Cc1cccs1)N/N=C/c1ccccn1, the Potency was “inactive”.
For COc1ccccc1CN1C[C@@H]2C[C@@H](c3ccc(Cl)cc3)N3CCC[C@@]23C1=O, the Potency was inconclusive: 22.4 µM [inhibitor, single point].
In the case of CSc1ccc(NS(=O)(=O)c2ccc(-n3cnnn3)cc2)cc1, the Potency was “inactive”.
For Cc1ccc(NC(=O)CCS(=O)(=O)c2cccc3nonc23)c(Br)c1, the Potency was “inactive”.
For CCS(=O)(=O)N1CCC(C(=O)NCCCN2CCN(c3ccccc3F)CC2)CC1, the Potency was “inactive”.
For Cc1ccccc1C(=O)Nc1nnc(-c2ccco2)o1, the Potency was “inactive”.
In the case of Cc1cccc(OCCCn2c(CO)nc3ccccc32)c1, the Potency was inconclusive: 28.2 µM [inhibitor, single point].
For CCOc1ccccc1NC(=O)C(OC(=O)c1cc(C)oc1C)c1ccccc1 (stereo not given), the Potency was inconclusive: 3.26 µM [inhibitor, single point].
In the case of CN1c2ccccc2-c2nc3ccccc3n2C1c1ccco1 (stereo not given), the Potency was inconclusive: 10 µM [inhibitor, partial curve, poor fit].
For O=[N+]([O-])c1cc(/C=N/n2c(-c3ccncc3)n[nH]c2=S)ccc1Cl, the Potency was inconclusive: 3.55 µM [inhibitor, full curve, poor fit].
For Cc1cc(NC(=O)c2ccc3c(c2)C(=O)N(C2CCCCC2)C3=O)no1, the Potency was “inactive”.
With COc1cccc(NC(=O)CN(C)C(=O)CCNC(=O)c2ccccc2Cl)c1 the Potency was “inactive”.
For O=C(CSc1ccc(-c2cccs2)nn1)NCCc1ccccc1, the activity change, negative = inhibition was inconclusive: 18.1% [activator] [at 46.1 µM].
With Cc1ccc(-n2nnnc2SCC(=O)Nc2sccc2C#N)cc1 the Potency was “inactive”.
In the case of COc1cc(NC(=O)CCCSc2nc(-c3ccco3)cc(C(F)(F)F)n2)cc(OC)c1OC, the Potency was inconclusive: 11.2 µM [inhibitor, single point].
For COCCC(=O)N1CCCC(CCC(=O)NCc2ccc(F)c(F)c2)C1 (stereo not given), the Potency was “inactive”.
In the case of Cc1cc(C(=O)CSc2nnnn2-c2ccccc2)c(C)n1CC1CCCO1 (stereo not given), the Potency was “inactive”.
With CSc1nnc(C)c(/C=C/Nc2ccc(Cl)cc2)n1 the Potency was inconclusive: 1.26 µM [activator, single point].
In the case of CC(C)C(C(=O)Nc1nccs1)N1C(=O)c2ccccc2C1=O (stereo not given), the Potency was “inactive”.
With COc1ccc2c(C)cc(SCC(=O)Nc3nsc(-c4ccc(C(C)(C)C)cc4)n3)nc2c1 the Potency was inconclusive: 3.16 µM [activator, single point].
With COc1ccc(NS(=O)(=O)c2ccc(O)c(NC(=O)c3cc4c(C)nn(-c5ccc(F)cc5)c4s3)c2)cc1 the Potency was inconclusive: 22.4 µM [inhibitor, single point].
For O=C(NNc1ccccc1[N+](=O)[O-])Nc1ccc(Cl)c(Cl)c1, the Potency was inconclusive: 11.2 µM [inhibitor, single point].
In the case of COC(=O)[C@@H](NC(=O)O[C@H]1C(=O)c2ccc(OC)cc2O[C@@H]1c1ccc2c(c1)OCO2)C(C)C, the Potency was “inactive”.
For Cc1cccc(C)c1OCC(O)CN1CCN(c2ccccc2)CC1 (stereo not given), the Potency was inconclusive: 10 µM [inhibitor, partial curve, poor fit].
In the case of CCC(Cc1ccccc1)NC(=O)c1csc2c1CCCCC2 (stereo not given), the Potency was “inactive”.
In the case of Cc1ccc(OCc2nnc(N)s2)cc1, the Potency was inconclusive: 1.41 µM [activator, full curve].
In the case of COc1cccc(Cn2c(SCc3ccc(C(=O)N4CCC(C)CC4)cc3)nc3ccncc32)c1, the Potency was inconclusive: 11.2 µM [inhibitor, single point].
For COC(=O)c1sccc1N/N=C/c1cccc(Oc2ccccc2)c1, the Potency was “inactive”.
In the case of O=C(NC1CCCCC1)N1CCCC(c2nc3ccccc3[nH]2)C1 (stereo not given), the Potency was “inactive”.
In the case of Cc1ccc(-n2c(SCc3nc(-c4ccccc4C)no3)nnc2-c2ccncc2)cc1C, the Potency was inconclusive: 11.2 µM [inhibitor, partial curve, poor fit].
In the case of Cc1cccc(-c2nc3sc(C)cc3c(=O)o2)c1, the Potency was inconclusive: 1 µM [inhibitor, single point].
In the case of O=C(O)c1nn(CCOc2c(Cl)cccc2Cl)c(=O)c2ccccc12, the Potency was inconclusive: 3.16 µM [inhibitor, full curve, poor fit].
In the case of O=C(O)CNS(=O)(=O)c1ccc(C2CCCCC2)cc1, the Potency was “inactive”.
For O=C(NC12CC3CC(CC(C3)C1)C2)c1ccc(-c2ccccc2Cl)o1, the Potency was inconclusive: 1.26 µM [activator, single point].
In the case of O=C(CN1C(=O)c2ccccc2S1(=O)=O)NCCSCc1ccccc1Cl, the Potency was “inactive”.
For CCOc1ccc(C(=O)NNC(=O)c2cc(S(=O)(=O)N3CCOCC3)ccc2Cl)cc1, the Potency was inconclusive: 1.26 µM [activator, single point].
For N#Cc1c(NC(=O)c2cc([N+](=O)[O-])ccc2N2CCOCC2)sc2c1CCCC2, the Potency was “inactive”.
With O=C(CC(=O)Nc1ccc(Cl)cc1)N/N=C\c1cccc(F)c1 the Potency was “inactive”.
With O=C(COC(=O)c1cc(Cl)nc2ccccc12)c1ccc(Cl)cc1 the Potency was inconclusive: 10 µM [activator, single point].
